# Assay results reported in paper PMC5996148.
# Values joined by “and” are separate entries in the source; they are usually repeats but may differ in a detail not shown here. Equal entries are not always repeated. Some of the results follow.
# Experiments:
# Assay in all cases: protein microarray (ProtoArray v5.0), streptavidin-Alexa Fluor 647
# Conditions in all cases: 3'-biotin; 20 mM Tris (pH 7.5), 5 mM MgCl2, 100 mM KCl, 0.1% Tween-20, A/T-rich and random oligonucleotide blockers; temperature not stated; high values mean tight binding
# [1] = test system: Aldo-keto reductase family 1 member C2 (human)
# [2] = test system: Alpha-1,3-mannosyl-glycoprotein 4-beta-N-acetylglucosaminyltransferase B (human)
# [3] = test system: Alpha-1-acid glycoprotein 1 (human)
# [4] = test system: Alpha-2-macroglobulin-like protein 1 (human)
# [5] = test system: Alpha-S1-casein (human)
# [6] = test system: Alpha-catulin (human)
# [7] = test system: Amino-terminal enhancer of split (human)
# [8] = test system: Anaphase-promoting complex subunit 11 (human)
# [9] = test system: Angiopoietin-1 receptor (human)
# [10] = test system: Annexin A4 (human)
# [11] = test system: Annexin-2 receptor (human)
# [12] = test system: Apolipoprotein A-I-binding protein (human)
# [13] = test system: Apolipoprotein A-IV (human)
# [14] = test system: Apolipoprotein C-II (human)
# [15] = test system: Apolipoprotein L2 (human)
# [16] = test system: Arfaptin-1 (human)
# [17] = test system: Armadillo repeat-containing protein 6 (human)
# [18] = test system: Aromatic-L-amino-acid decarboxylase (human)
# [19] = test system: Asporin (human)
# [20] = test system: Ataxin-3 (human)
sequence,measurement,setting,value
GGGAGGCTGAGGCAGG [G4-1 biotinylated (PQS2)],binding signal,[1],-0.338 z-score
same,binding signal,[2],-0.325 z-score
same,binding signal,[3],-0.333 z-score
same,binding signal,[4],-0.301 z-score
same,binding signal,[5],-0.335 z-score
same,binding signal,[6],-0.348 z-score
same,binding signal,[7],-0.373 z-score
same,binding signal,[8],-0.343 z-score
same,binding signal,[9],-0.238 z-score
same,binding signal,[10],-0.333 z-score
same,binding signal,[11],-0.36 z-score and -0.349 z-score
same,binding signal,[12],-0.318 z-score
same,binding signal,[13],-0.371 z-score
same,binding signal,[14],-0.35 z-score
same,binding signal,[15],-0.353 z-score
same,binding signal,[16],-0.361 z-score
same,binding signal,[17],-0.349 z-score
same,binding signal,[18],-0.354 z-score
same,binding signal,[19],-0.297 z-score
same,binding signal,[20],-0.344 z-score

# Part of the list above, as tab-separated lines.
sequence	measurement	setting	value
GGGAGGCTGAGGCAGG [G4-1 biotinylated (PQS2)]	binding signal	[2]	-0.325 z-score
same	binding signal	[19]	-0.297 z-score
